Results are given in words; binding and its absence hold for the method and conditions named. Binding seen in cells or lysates may run through a third protein. Some binding calls cover weakened binding; strength is not graded here. Sequences can lack the tags named with a protein.
Tests used:
[1] = target: T1, FLAG-tagged wild-type Piwi (Drosophila melanogaster) (UniProt Q9VKM1); test: co-IP; FLAG-tagged Piwi expressed in endogenous Piwi-depleted OSCs, immunoprecipitated with anti-FLAG beads; lysates and immunoprecipitates analysed by western blotting (anti-Arx)
T1 sequence: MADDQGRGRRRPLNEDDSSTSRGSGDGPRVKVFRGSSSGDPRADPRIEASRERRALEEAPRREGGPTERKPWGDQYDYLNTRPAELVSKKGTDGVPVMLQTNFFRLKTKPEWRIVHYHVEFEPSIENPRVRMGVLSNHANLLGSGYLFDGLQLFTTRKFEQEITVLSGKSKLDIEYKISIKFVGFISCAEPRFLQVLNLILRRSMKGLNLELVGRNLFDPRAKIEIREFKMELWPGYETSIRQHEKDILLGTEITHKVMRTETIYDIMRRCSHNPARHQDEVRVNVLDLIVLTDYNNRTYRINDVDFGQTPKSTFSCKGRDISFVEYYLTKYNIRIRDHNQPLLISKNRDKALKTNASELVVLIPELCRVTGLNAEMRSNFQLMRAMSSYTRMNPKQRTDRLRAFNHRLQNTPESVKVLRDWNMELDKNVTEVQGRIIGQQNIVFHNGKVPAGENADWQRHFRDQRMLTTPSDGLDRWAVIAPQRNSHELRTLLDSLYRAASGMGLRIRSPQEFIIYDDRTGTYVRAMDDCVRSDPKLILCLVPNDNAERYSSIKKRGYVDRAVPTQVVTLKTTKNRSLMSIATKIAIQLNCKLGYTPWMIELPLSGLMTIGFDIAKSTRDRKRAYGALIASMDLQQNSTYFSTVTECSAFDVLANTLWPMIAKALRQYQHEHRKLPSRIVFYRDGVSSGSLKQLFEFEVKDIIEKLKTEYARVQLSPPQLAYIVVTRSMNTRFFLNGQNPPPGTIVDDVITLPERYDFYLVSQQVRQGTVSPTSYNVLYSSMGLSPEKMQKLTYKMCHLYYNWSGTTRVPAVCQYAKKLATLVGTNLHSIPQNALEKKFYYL

[2] = target: T2, FLAG-tagged slicer-Piwi (Piwi K617H/A625S/V653E/K818H mutant) (Drosophila melanogaster) (UniProt Q9VKM1); test: as above
T2 sequence: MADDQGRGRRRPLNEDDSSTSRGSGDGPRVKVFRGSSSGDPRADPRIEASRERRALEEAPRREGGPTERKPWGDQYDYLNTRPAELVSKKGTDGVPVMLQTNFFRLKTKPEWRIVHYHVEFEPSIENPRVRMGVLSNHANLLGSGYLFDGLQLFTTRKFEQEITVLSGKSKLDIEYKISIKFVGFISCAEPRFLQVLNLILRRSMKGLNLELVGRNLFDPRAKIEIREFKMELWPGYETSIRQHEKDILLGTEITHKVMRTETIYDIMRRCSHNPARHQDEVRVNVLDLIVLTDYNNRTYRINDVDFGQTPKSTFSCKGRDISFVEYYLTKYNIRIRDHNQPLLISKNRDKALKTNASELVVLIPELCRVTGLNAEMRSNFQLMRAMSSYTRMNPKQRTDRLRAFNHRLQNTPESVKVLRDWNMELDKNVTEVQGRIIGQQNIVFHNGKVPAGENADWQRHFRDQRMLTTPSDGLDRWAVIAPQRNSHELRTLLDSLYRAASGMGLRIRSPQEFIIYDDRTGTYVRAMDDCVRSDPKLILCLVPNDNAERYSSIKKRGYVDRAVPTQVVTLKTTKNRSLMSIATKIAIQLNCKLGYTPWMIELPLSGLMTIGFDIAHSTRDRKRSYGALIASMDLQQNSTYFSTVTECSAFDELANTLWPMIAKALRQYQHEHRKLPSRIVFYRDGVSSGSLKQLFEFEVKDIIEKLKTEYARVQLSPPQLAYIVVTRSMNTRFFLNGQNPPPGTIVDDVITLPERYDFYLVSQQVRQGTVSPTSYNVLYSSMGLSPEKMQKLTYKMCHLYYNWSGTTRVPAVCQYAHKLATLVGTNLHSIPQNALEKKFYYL

binding [1]: binds
binding [2]: binds
B1: Gtsf1/Asterix (Arx) (protein, UniProt Q8SWX0 1-167)
chain: MVYCPYNKEHKMLRKKLQQHILKCRVIYKDTVELMVCPFNSSHLIPEPQFFQHTQSCEDRNIIVHYQTSAPAVLSEDTRHAKIESEENWDDDESVPDYDPQVYCSRANIVREPNGLFPAQRRAFIEQEKRRHFGEDYEEEKKPRKAKARADLRPTPYEHRRPYSRRQ
